This data set deals with canola leaf. Description: Total Available Dose (TAD) of 2,4-D DMA into canola leaf = Uptake (%) x Droplet Adhesion (%). To be noted: no adjuvant compound (0 % wt/vol), 2,4-D alone.

Turning to `CNC.O=C(O)COc1ccc(Cl)cc1Cl` [2,4-D alone, 2,4-dichlorophenoxyacetic acid, dimethylamine salt], the “TAD (2 HAT)” value (2 HAT) is reported as 0.8. For the same molecule, the “TAD (24 HAT)” value (24 HAT) is recorded as 4.9.

Values taken from patent US10233200B2, “Organomodified monosilyl compound, its preparation and applications thereof” (Momentive Performance Materials Inc., priority 2017, dated 2019).
